Measured data: PubChem BioAssay AID686943 (Drosophila RNAi Screening Center, 2013)
Aim: 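Fly genes whose loss alters ERK activation after insulin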 (primary screen). Cell system: Drosophila S2R+ haemocyte-like cells expressing YFP-tagged ERK (Rolled). Knock-down reagent: long dsRNA against Drosophila genes. Challenge: insulin stimulation versus unstimulated cells; dose and duration not given. Measured: 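Per-plate z-scores of phospho-ERK immunostaining normalised to YFP-tagged ERK, measured with and without insulin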. Reading the numbers: replicate 1, z-score of dpERK with insulin and replicate 2, z-score of dpERK with insulin: higher = more active ERK per ERK-YFP after insulin; replicate 1, z-score of dpERK under basal conditions: higher = more basal active ERK per ERK-YFP; replicate 1, z-score of ERK-YFP with insulin: higher = more YFP-tagged ERK signal.
In all, the deposit lists about 23,000 reagents; shown is an unselected part of those that have a named target and a result. 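Extra replicates exist only for a retested subset of genes; insulin dose and duration not given; both raised and lowered dpERK matter.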 Not given: the amount of reagent, the time to read-out.

gene | DRSC id | replicate 1, z-score of dpERK with insulin | replicate 2, z-score of dpERK with insulin | replicate 1, z-score of dpERK under basal conditions | replicate 1, z-score of ERK-YFP with insulin
ND-51L2 (NADH dehydrogenase (ubiquinone) 51 kDa subunit-like 2) | DRSC07080 | 0.12 | 0.16 | 0.79 | 0.59
CG9945 | DRSC07347 | 0.54 | -0.09 | -1.12 | 0.18
CG5961 | DRSC15927 | 0.28 | 0.53 | -0.32 | 0.02
Hr39 (Hormone receptor-like in 39) | DRSC03346 | -0.72 | -0.02 | 0.43 | 1.25
CG12310 | DRSC09878 | -0.35 | -0.26 | -0.48 | 0.23
CG7149 | DRSC03016 | 0.17 | 0.27 | 0.52 | 0.83
mora (morgana) | DRSC16594 | 0.59 | 0.24 | 0.43 | -0.16
Cyp6g1 (Cytochrome P450 6g1) | DRSC07386 | -0.38 | -0.15 | 0.92 | 0.95
CG18746 | DRSC15383 | -0.26 | 0 | -0.75 | -0.17
Rab3GAP1 (RAB3 GTPase activating protein subunit 1) | DRSC00291 | 0.46 | -0.09 | 2.71 | 0.13
Rab3GAP1 (RAB3 GTPase activating protein subunit 1) | DRSC00703 | 0.07 | -0.63 | 0.84 | 0.18
dmGlut (Dietary and metabolic glutamate transporter) | DRSC02835 | 0.17 | 0.33 | -1.03 | -0.15
Thor | DRSC00770 | 0.49 | 0.3 | -0.57 | 0.05
barc (barricade) | DRSC11792 | 0.51 | 0.11 | 0.84 | 0.53
pcs (parcas) | DRSC07042 | 0.48 | 0.2 | -0.05 | 0.23
Neurl4 (Neuralized E3 ubiquitin protein ligase 4) | DRSC10638 | 0.54 | 0.36 | -0.18 | -0.17
CG8516 | DRSC16437 | 0.03 | 0.12 | 1.06 | -0.17
fuss (fussel) | DRSC17200 | -0.01 | 0.2 | 0.24 | 0.05
fuss (fussel) | DRSC21452 | -1.1 | -2.78 | -1.3 | -0.14
CG18171 | DRSC08524 | -0.87 | -0.2 | 1.08 | 0.05
mRpS18B (mitochondrial ribosomal protein S18B) | DRSC02107 | 0.24 | 0.1 | -0.88 | 0.7
Fbw5 (F-box and WD repeat domain containing 5) | DRSC03146 | 0.26 | 0.02 | -0.1 | -0.33
CG17549 | DRSC02625 | 1.14 | 0.43 | 0 | -0.19
Mlp60A (Muscle LIM protein at 60A) | DRSC04623 | -0.58 | -0.93 | 0.48 | -0.05
Mlp60A (Muscle LIM protein at 60A) | DRSC22233 | -0.16 | -0.02 | 1.2 | -1.07
Mlp60A (Muscle LIM protein at 60A) | DRSC22481 | 0.27 | 0.51 | -0.24 | 0.13
CG34444 | DRSC06435 | -0.42 | -0.1 | -0.6 | 0.9
Rox8 | DRSC16829 | -0.04 | -0.46 | -1.09 | 0.25
Vinc (Vinculin) | DRSC18728 | -0.02 | -0.33 | -1.04 | -3.56
ZAP3 | DRSC17852 | 0.35 | 0.95 | -0.23 | 0.33
ZAP3 | DRSC17853 | 0.5 | 1.42 | 1.82 | 0.52
ZAP3 | DRSC18249 | 1.92 | 1.36 | 0.06 | 0.67

Laid out differently: 4 of the entries above.
Rab3GAP1 (RAB3 GTPase activating protein subunit 1) [DRSC00291]
- replicate 1, z-score of dpERK with insulin: 0.46
- replicate 2, z-score of dpERK with insulin: -0.09
- replicate 1, z-score of dpERK under basal conditions: 2.71
- replicate 1, z-score of ERK-YFP with insulin: 0.13

Rab3GAP1 (RAB3 GTPase activating protein subunit 1) [DRSC00703]
- replicate 1, z-score of dpERK with insulin: 0.07
- replicate 2, z-score of dpERK with insulin: -0.63
- replicate 1, z-score of dpERK under basal conditions: 0.84
- replicate 1, z-score of ERK-YFP with insulin: 0.18

dmGlut (Dietary and metabolic glutamate transporter) [DRSC02835]
- replicate 1, z-score of dpERK with insulin: 0.17
- replicate 2, z-score of dpERK with insulin: 0.33
- replicate 1, z-score of dpERK under basal conditions: -1.03
- replicate 1, z-score of ERK-YFP with insulin: -0.15

Thor [DRSC00770]
- replicate 1, z-score of dpERK with insulin: 0.49
- replicate 2, z-score of dpERK with insulin: 0.3
- replicate 1, z-score of dpERK under basal conditions: -0.57
- replicate 1, z-score of ERK-YFP with insulin: 0.05

The results go on.
gene | DRSC id | replicate 1, z-score of dpERK with insulin | replicate 2, z-score of dpERK with insulin | replicate 1, z-score of dpERK under basal conditions | replicate 1, z-score of ERK-YFP with insulin
CG33639 | DRSC19966 | 0.6 | 0.63 | 0.31 | 0.07
CG33639 | DRSC22820 | 1.62 | 1.36 | -1.66 | -0.23
sgg (shaggy) | DRSC17228 | 0.02 | 0.19 | 0.29 | -0.02
sgg (shaggy) | DRSC17722 | -0.03 | 0.6 | -0.36 | 0.01
sgg (shaggy) | DRSC18832 | 0.82 | 1.42 | -0.28 | 0.13
kibra | DRSC14533 | 0.3 | 0.6 | 0.77 | -0.24
kibra | DRSC16257 | -1.12 | -4.15 | -2.93 | -0.28
CG33170 | DRSC11854 | 0.84 | 0.27 | -0.01 | 0.15
CG33170 | DRSC22366 | 0 | 1.17 | -0.78 | 0.58
CG13800 (retired record) | DRSC08334 | 1.24 | 0.72 | 0.99 | 0.22
CG13002 | DRSC19521 | -0.05 | -0.47 | -0.16 | 0.55
CG10948 | DRSC09806 | 0.05 | -0.11 | 0.63 | -0.14
Or85d (Odorant receptor 85d) | DRSC16767 | 0.78 | -0.15 | -0.12 | 0
Takl2 (Tak1-like 2) | DRSC15650 | 0.44 | -0.26 | -0.21 | 0.58
Arr1 (Arrestin 1) | DRSC01867 | 0.18 | -0.09 | 1.68 | 0.58
CG8157 | DRSC07085 | -0.47 | -1.05 | -2.37 | 1.33
CG8157 | DRSC21595 | 0.84 | -0.03 | -0.32 | -0.3
Mf (Myofilin) | DRSC16120 | 0.33 | -0.58 | 0.31 | 0.6
sinu (sinuous) | DRSC09752 | 0.52 | -0.5 | 0.84 | 0.32
mey (morpheyus) | DRSC14468 | -1.06 | -0.42 | 0.08 | 0.52
CG17233 | DRSC10259 | 0.03 | 0.62 | -1.4 | 0.5
nis | DRSC00290 | -1.72 | -0.31 | -0.51 | 1.66
CCT6 (Chaperonin containing TCP1 subunit 6) | DRSC20095 | -0.14 | 0.02 | 2.02 | 0.12
CG4374 | DRSC15570 | 1.33 | -0.22 | 1.21 | -0.05
CG32119 | DRSC09248 | 0.14 | 0.42 | 0.3 | -0.02
CG32119 | DRSC21462 | 0.32 | -0.08 | 0.06 | 0.03
